The source of these data is PubChem BioAssay AID2685 (National Center for Advancing Translational Sciences (NCATS), 2010).

This test can be described thus: qHTS Assay for Lipid Storage Modulators in Drosophila S3 Cells.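 On cell number change: cells counted by Cell Tracker Red CMTPX staining in the red channel.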 The following applies: BODIPY lipid droplet fluorescence, 18-24 h; for cell number change: measured here: cell count max response, cells fed with added oleic acid. An outline of the steps:
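Laser-scanning cytometry quantifies lipid droplet accumulation (500–530 nm total intensity; droplet/cell object ratio) in oleic acid-fed (400 uM added) Drosophila S3 cells treated with a concentration series. 20 uM Triacsin C defined 100% inhibition.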

[1] abbreviates: measured here: cell number channel AC50, cells fed with added oleic acid.
Where [2] appears, read: measured here: lipid fluorescence (Fed channel) AC50, cells fed with added oleic acid.

Some of the results follow. Further columns of the screen follow, without active or inactive calls. Compounds called inactive in the main read-out are mostly missing here. The note in brackets gives the kind of curve behind each potency; many fits are weak.

Turning to `Cc1cc(=O)[nH]c2c3ccccc3nn12`, the cell number change is -45.2%. Moreover, the half-maximal activity concentration (AC50) under setting [1] was 16.4 µM [falling, partial curve]. As to `CCCOc1cccc(/C=N/NC(=O)c2csc(C)c2C)c1`, the cell number change is 3.83%. For the same molecule, under setting [2], the AC50 was 29.1 µM [rising, single point]. As for `Cc1c(C2(O)CCCCC2)[nH]c2cnccc12`, the cell number change is -21.2%. Further, the concentration at half-maximal activity (AC50) under setting [2] was 1.84 µM [rising, partial curve, poor fit]. As to `O=C(Nc1ccncc1)c1cccc(S(=O)(=O)N2CCc3ccccc32)c1`, under setting [1], the AC50 is 6.51 µM [rising, partial curve, poor fit]. Regarding `O=C1CC(c2ccco2)CC(O)=C1C=Nc1cc(Cl)cc(Cl)c1` (centres undefined), the half-maximal activity concentration (AC50) under setting [2] is 23.1 µM [falling, partial curve].

In the case of `COc1ccc(N2CCCC2=N)c(OC)c1`, the cell number change is 10.9%. The AC50 under setting [2] is 0.00461 µM [falling, full curve, poor fit]. As to `Cn1c(=O)oc2cc(S(=O)(=O)N3CCC(C(=O)Nc4ccc(OC(F)(F)F)cc4)CC3)ccc21`, the AC50 under setting [2] is 6.51 µM [rising, partial curve, poor fit].

For the molecule `S=c1nccc(-c2ccc3c(c2)CCO3)[nH]1`, the cell number change amounted to 4.83%. Further, under setting [2], the half-maximal activity concentration (AC50) was 6.51 µM [rising, single point]. As to `CC(=O)c1cccc(S(=O)(=O)N2CCC(c3nc4ccccc4[nH]3)CC2)c1`, the cell number change was 5.65%. In addition, under setting [2], the AC50 is 0.58 µM [rising, single point]. As to `Cc1ccnc(SCC(=O)N2CCc3ccccc32)n1`, the cell number change came to 5.13%. Also, under setting [1], the AC50 is 0.058 µM [rising, full curve, poor fit]. In addition, the half-maximal activity concentration (AC50) under setting [2] was 0.116 µM [rising, single point].

Consider `CSc1ccccc1NC(=O)c1cc(C2CC2)on1`, for which the cell number change is 29.5%. As for `CCC(=O)N(C)CCc1cc2c(c(OC)c1/C=N/Nc1ccc(C(=O)O)cc1)OCO2`, the cell number change worked out at 21.4%. For the same molecule, the AC50 under setting [2] was 0.58 µM [rising, full curve]. Turning to `O=C(CNC(=O)c1ccc(Cl)cc1Cl)OCC(=O)N1CCCC1=O`, the cell number change is -0.453%. For the same molecule, under setting [2], the half-maximal activity concentration (AC50) was 29.1 µM [rising, single point].

Regarding `O=C(O)CCn1cc(/C=N/O)c(-c2cccc([N+](=O)[O-])c2)n1`, the cell number change was 22.5%. Also, under setting [1], the half-maximal activity concentration (AC50) is 6.51 µM [rising, single point]. For `CC(C)n1c(/C=C/[C@H](O)C[C@H](O)CC(=O)O)c(-c2ccc(F)cc2)c2ccccc21`, the cell number change was -18.9%. The half-maximal activity concentration (AC50) under setting [2] was 6.51 µM [falling, single point]. As for `COc1ccc2c(C)cc(SCC(=O)N(C)C3CCS(=O)(=O)C3)nc2c1` (centres undefined), the cell number change was determined as 68.3%. Besides, the AC50 under setting [1] is 5.17 µM [rising, full curve]. Moreover, the AC50 under setting [2] was 0.517 µM [rising, full curve]. As for `COc1cccc(NC(=O)CN(c2ccc(C)cc2)S(=O)(=O)c2c(C)nn(C)c2C)c1`, the cell number change was determined as 3.04%.

As for `CCCCn1c(SCC(=O)Nc2cc(C(F)(F)F)ccc2Cl)nnc1C(CC)N(C)C` (centres undefined), the cell number change is -11.1%. Further, the concentration at half-maximal activity (AC50) under setting [1] was 0.103 µM [rising, full curve, poor fit]. Besides, the concentration at half-maximal activity (AC50) under setting [2] is 0.116 µM [rising, full curve, poor fit]. `CCn1c(C(=O)NC2CCC(C)CC2)cc2sccc21` (centres undefined): the cell number change is 5.85%. For the same molecule, the concentration at half-maximal activity (AC50) under setting [2] was 6.51 µM [rising, partial curve]. On to `O=C(NCCCNC(=O)c1ccccc1Cl)c1cnccn1`, for which the cell number change turned out to be 0.901%. For the same molecule, the AC50 under setting [2] was 0.164 µM [rising, full curve].

With `CC1=C([N+](=O)[O-])C(c2ccccc2)C2=C(N1)c1ccccc1C2=O` (centres undefined), the cell number change stood at 48.4%. Also, the AC50 under setting [1] is 0.58 µM [rising, full curve]. The AC50 under setting [2] was 0.13 µM [rising, full curve, poor fit]. Consider `CCOc1cc(Br)c(C(=O)O)cc1OC`, for which the cell number change is -29.8%. `O=C(CCOc1cccc(Br)c1)NNC(=O)COc1ccc(F)cc1`: the cell number change came to 47.5%. Further, the half-maximal activity concentration (AC50) under setting [1] is 16.4 µM [rising, single point]. On to `Cc1ccc(NCCc2ccc(C)nc2)cc1`, for which the cell number change worked out at 230%. Besides, the concentration at half-maximal activity (AC50) under setting [1] was 20.6 µM [rising, partial curve]. The AC50 under setting [2] was 29.1 µM [rising, single point].

For `O=S(=O)(Nc1ccc(-n2cnnn2)cc1)c1ccccc1F`, the cell number change is -11%. In addition, the concentration at half-maximal activity (AC50) under setting [1] is 6.51 µM [falling, single point]. The AC50 under setting [2] was 4.11 µM [falling, single point].

On to `O=C(Nc1c(C(=O)N2CCOCC2)cnn1-c1ccccc1)c1ccccc1`, for which the cell number change came to 8.71%.

Regarding `COc1ccccc1C(=O)NCCC(=O)Nc1cccc(S(=O)(=O)N2CCCC2)c1`, the cell number change was 22%. Consider `CN(C)c1nc(C(=O)NN)nc(N(C)C)n1`, for which the concentration at half-maximal activity (AC50) under setting [1] was 1.84 µM [rising, partial curve, poor fit].

Regarding `COc1ccc(C2c3c(oc4ccc(C)cc4c3=O)C(=O)N2c2cc(C)ccn2)cc1OC` (centres undefined), the AC50 under setting [1] was 1.03 µM [rising, partial curve]. In the case of `COc1ccc(CCC(=O)NCCc2ccc(Cl)cc2)cc1`, the cell number change stood at 9.52%. The half-maximal activity concentration (AC50) under setting [2] was 6.51 µM [falling, single point]. For `COc1ccc(C)cc1S(=O)(=O)N(C)CC(=O)NCc1ccco1`, the cell number change is -4.59%. Moreover, the half-maximal activity concentration (AC50) under setting [2] was 9.2 µM [rising, single point]. Consider `COCCCNC(=O)c1ccc(NC(C)=O)cc1`, for which the cell number change worked out at 4.52%. The concentration at half-maximal activity (AC50) under setting [2] was 0.731 µM [rising, single point]. Regarding `O=C(O)Cc1ccc(C(=O)c2ccc(Cl)cc2)s1`, the cell number change was -8.79%. Further, the AC50 under setting [2] is 29.1 µM [falling, single point]. For the molecule `O=C(NCC1CCCO1)C(=O)N/N=C/c1c(F)cccc1Cl` (centres undefined), the cell number change was 10.3%. On to `N/C(=N\OC(=O)CCCOc1ccccc1)c1ccccn1`, for which the AC50 was 6.51 µM [falling, single point] under setting [1] and 6.51 µM [falling, single point] under setting [2]. Regarding `NC(=S)N/N=C/c1cccc(Br)c1`, the cell number change was -11.4%. Besides, the AC50 under setting [1] was 0.82 µM [falling, full curve]. Further, the AC50 under setting [2] was 0.411 µM [falling, partial curve, poor fit]. Consider `O=c1c2ccccc2ncn1-c1cccc(Br)c1`, for which the cell number change was -9.56%. The AC50 under setting [2] is 0.517 µM [rising, full curve, poor fit]. Turning to `O=C(CNCCc1ccc(Cl)cc1)Nc1ccc(C(=O)N2CCCCC2)cc1`, the cell number change is -5.65%. Further, the AC50 under setting [2] was 29.1 µM [falling, partial curve, poor fit]. `CC(O/N=C/c1ccccc1OC(F)F)C(=O)Nc1cccc(S(=O)(=O)N2CCOCC2)c1` (centres undefined): the cell number change is -14%. On to `O=C(CC1SC(=NCc2ccccc2)NC1=O)Nc1ccccc1` (centres undefined), for which the cell number change stood at 0.574%. Under setting [1], the half-maximal activity concentration (AC50) was 6.51 µM [rising, single point]. In the case of `CCn1c(=O)c(=O)[nH]c2c(=O)oc3ccc(S(=O)(=O)Nc4ccccc4)cc3c21`, the AC50 under setting [2] was 10.3 µM [falling, partial curve].

In the case of `CCOc1ccc(CCNC(=O)COC(=O)Cn2cnc3c2c(=O)n(C)c(=O)n3C)cc1OCC`, the cell number change is -25%. The concentration at half-maximal activity (AC50) under setting [1] was 6.51 µM [rising, single point].

As for `Clc1ccc(Oc2ncnc3oc(-c4ccccc4)cc23)cc1`, the cell number change was 10.3%. The concentration at half-maximal activity (AC50) under setting [2] is 29.1 µM [falling, single point]. In the case of `COc1cc(C(=O)OC(C)CN2CCN(C)CC2)cc(OC)c1OC` (centres undefined), the cell number change was -20%. The half-maximal activity concentration (AC50) under setting [1] is 2.91 µM [falling, full curve, poor fit]. For the same molecule, under setting [2], the AC50 was 14.6 µM [rising, partial curve]. As for `Cc1ccc(CN2CC(C(=O)N(C)CC(=O)Nc3cccc(F)c3)CC2=O)cc1` (centres undefined), the cell number change was -3.84%. Besides, the concentration at half-maximal activity (AC50) under setting [2] was 29.1 µM [rising, single point]. Consider `Cc1ccc(C(=O)CC2(O)C(=O)N(CN3CCOCC3)c3ccccc32)cc1` (centres undefined), for which the AC50 is 5.17 µM [falling, partial curve] under setting [1] and 4.11 µM [falling, partial curve] under setting [2]. For `C=CCn1c(CC(=O)Nc2cccc(OC)c2)nnc1SCC(=O)NC1CCCCC1`, the cell number change is 71.6%. In addition, the AC50 under setting [1] was 13 µM [rising, partial curve]. In addition, under setting [2], the concentration at half-maximal activity (AC50) is 29.1 µM [rising, single point]. `O=C(NCCC1CCCCN1S(=O)(=O)c1ccccc1)C(=O)Nc1ccc(F)cc1` (centres undefined): the cell number change came out at 3.23%. The concentration at half-maximal activity (AC50) under setting [2] is 1.84 µM [falling, partial curve]. For `Clc1ccc(/C=N/Nc2ncnc3nc[nH]c23)cc1`, the cell number change was 8.3%. The AC50 under setting [2] is 14.6 µM [rising, partial curve]. As to `CC(C)c1ccc2nc3sc(C(=O)N4CCc5ccccc5C4)c(N)c3cc2c1`, the cell number change was -20.7%. Consider `COc1ccc(-c2cc(C)nc(SCc3cccc(C(=O)O)c3)n2)cc1`, for which the cell number change is 9.94%. Moreover, the AC50 under setting [2] is 0.146 µM [falling, full curve]. For the molecule `Cc1cccc(NC(=O)COC(=O)Cc2cccs2)c1C`, the cell number change amounted to 30.6%. Under setting [1], the AC50 was 32.6 µM [rising, single point]. Take `CCOc1ccc(CNC(=O)CCC(=O)N2Cc3cccc(OC)c3Oc3ncccc32)cc1`: the cell number change was -24.9%.

As for `COc1ccc(CCN(C)C(=O)C(CCSC)NC(=O)c2ccco2)cc1OC` (centres undefined), the AC50 under setting [2] was 6.51 µM [falling, single point]. Consider `CCOc1ccc(N(CC(=O)O)S(=O)(=O)c2cccnc2)cc1`, for which the cell number change turned out to be 19.3%. Under setting [2], the concentration at half-maximal activity (AC50) was 0.92 µM [rising, full curve, poor fit]. Turning to `O=C(O)C1=NOC(CNc2ncc(C(F)(F)F)cc2Cl)C1` (centres undefined), the cell number change amounted to 102%. Moreover, the half-maximal activity concentration (AC50) under setting [1] is 29.1 µM [rising, single point]. For the molecule `Cc1nc(-c2ccc(C(=O)O)cc2)cs1`, the cell number change stood at 30.1%. Further, the AC50 under setting [1] is 0.00411 µM [rising, full curve, poor fit]. In the case of `Cc1ccc2nc(-c3ccncc3)cc(C(=O)Nc3ccc4c(c3)OCCO4)c2c1`, the cell number change was -35.4%. In addition, under setting [1], the concentration at half-maximal activity (AC50) was 20.6 µM [falling, single point]. Moreover, the AC50 under setting [2] was 29.1 µM [falling, single point]. In the case of `O=C(Cc1c(F)cccc1Cl)N1CCN(C(=O)c2ccco2)CC1`, the cell number change turned out to be 3.38%. Moreover, the half-maximal activity concentration (AC50) under setting [2] is 0.082 µM [falling, full curve, poor fit].

As to `COc1cc(N2C(=O)NC3CC2(C)Oc2ccccc23)cc(OC)c1OC` (centres undefined), the cell number change was 111%. Moreover, under setting [1], the AC50 is 29.1 µM [rising, single point]. Further, the AC50 under setting [2] is 29.1 µM [rising, single point].

`Cc1nc2ccc(Nc3ccncc3)cc2s1`: the cell number change was -58.7%.

For the molecule `O=Cc1ccc(-n2cccn2)cc1`, the cell number change is -2.54%. For the same molecule, the AC50 under setting [1] is 2.59 µM [rising, partial curve, poor fit]. Besides, the AC50 under setting [2] is 1.84 µM [rising, partial curve].
